## Percent effect of library compounds

Source: ChEMBL document CHEMBL3988442, “University of Dundee, Small-Polar-MMV Screening Library” (2021).

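Whole-parasite assay of Trypanosoma brucei over 72 hours; the read-out is not stated. Compounds at 30 µM. Higher reads as stronger inhibition (inferred: compounds with an IC50 in retests scored well above the rest). Values scatter widely below zero; nearly all retest evidence comes from the higher of the two concentrations used. About 64,000 compounds were tested under these conditions; 1.5% (about 940) showed 50% or more at least once.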

The filed quantity is “Percent Effect” (%).
The controls that fix the scale are not given in the record; negative values are as filed.
This is an unselected part of the compounds tested.
Two or more numbers in one place are separate tests of the same structure; such repeats can differ widely.

| Compound | Percent Effect |
|---|---|
| `O=C(CCCOc1ccccc1)N1CCCC1Cn1cccn1` (stereo not drawn) | -16.68% |
| `Cc1cc(N2CCC(O)(CN(C)C(=O)CCN)CC2)c2cnccc2n1` | 7.075% |
| `CN1CCN(C[C@@H]2CN(C(=O)CC3CCCCC3)C[C@@H]2CO)CC1` | -6.951% |
| `O=C(O)C(F)(F)F.O=C(O)C(F)(F)F.[H][C@@]12CCN(c3ncccn3)[C@]1([H])CC[C@H](C(=O)NC1CCN(C)CC1)O2` | -29.6% |
| `CCNC(=O)NCc1cccc(N2CC=CC2)c1` | -18.84% |
| `C=C(C)CN1CCOC(Cn2cncn2)C1` (stereo not drawn) | -47.49% |
| `Cn1c(=O)oc2ccc(Nc3ncc(C#N)cc3Cl)cc21` | 4.438% |
| `CNS(=O)(=O)c1ccc(CNC(=O)c2cc(-c3ccccn3)no2)cc1` | 26.36% |
| `Cc1ccc(N2N=C(C(N)=O)S(=O)(=O)c3cccnc32)cc1` | -23.15% |
| `O=C(O)C(F)(F)F.[H][C@@]12C[C@@H](Oc3cccc(F)c3)CN1CCN(C(=O)c1ccnnc1)C2` | -12.8% |
| `CN1CCN(C(=O)c2cccn2C)Cc2cccnc21` | -5.91% |
| `O=S(=O)(CC1CCCN1S(=O)(=O)C1CC1)c1ccccc1` (stereo not drawn) | -28.33% |
| `CNC(=O)c1cccnc1NCCOc1ccc(CC#N)cc1` | -9.835% |
| `O=C1COc2cc(S(=O)(=O)NCCC3=CCCCC3)c(Br)cc2N1` | -25.07% |
| `Cc1ccc(O)c(CN2CCn3nc(C(=O)N4CCCC4)cc3C2)n1` | -1.144% |
| `COc1cccc(S(=O)(=O)CCN2CCN(CCO)CC2)c1` | 19.12% |
| `Cc1noc(C)c1-c1cncc(C2CCCN2Cc2ccncc2)n1` (stereo not drawn) | 16.27% |
| `CC(C)c1nc2n(n1)CC(NCc1nnc(C3CC3)o1)CC2` (stereo not drawn) | -22% |
| `CN(C)Cc1nnc(C(=O)N(C)Cc2ccc(C(F)(F)F)cc2)o1` | 4.717% |
| `CCCc1nc(N2CCCN(c3ccncc3)CC2)c2cnn(C)c2n1` | 59.27% |
| `COCc1nc2n(n1)CCCC2Nc1nc(C)ns1` (stereo not drawn) | -11.29% |
| `CCN(CCC(=O)OC)C(=O)c1cc(F)cc2[nH]cnc12` | -14.01% |
| `CCS(=O)(=O)N1CCc2ccc(NC(=O)Nc3ccccc3)cc21` | -13.2% |
| `O=C(NC1CCCCC1)N1CCc2onc(COc3cccnc3)c2C1.O=C(O)C(F)(F)F` | -567.9% |
| `COCCn1c(-c2cccc(OC)c2)cnc1NC(=O)NC1CCCC1` | -11.97% |
| `CCOC(=O)CC(C)Nc1nc(C2CCCC2)nc2c1cnn2C` (stereo not drawn) | 7.333% |
| `CC(=O)NC1Cc2ccc(S(=O)(=O)NCCNc3ccccn3)cc2C1` (stereo not drawn) | -4.812% |
| `CN(C)Cc1cc(=O)n2c(n1)CN(C(=O)Cc1ccsc1)CCC2.O=C(O)C(F)(F)F` | -39.95% |
| `CN(Cc1ccccn1)C1CCCN(Cc2noc(C3CC3)n2)C1` (stereo not drawn) | 8.851% |
| `Cc1ccccc1C(=O)Nc1cnn(CC(=O)NC2CCCC2)c1` | 12.26% |
| `Cc1cc(C)cc(OCCN(C)Cc2ccc(S(=O)(=O)N(C)C)o2)c1` | -36.84% |
| `COc1cccc(Cn2c(=O)n(C)c(=O)c3sccc32)c1` | -26.07% |
| `Cc1ccc(-n2c(SCC(=O)O)nnc2-c2ccccc2)cc1` | 5.476% |
| `CN(Cc1ccc(Cl)c(F)c1)C(=O)c1ccncc1F` | 2.078% |
| `CC(C)CC(=O)NC1CC2(CCN(CCF)CC2)Oc2ccccc21.O=C(O)C(F)(F)F` (stereo not drawn) | -15.72% |
| `O=C(O)c1cc(S(=O)(=O)Nc2ccccc2)cc2c1OCCO2` | 1.403% |
| `O=C(NC1CCS(=O)(=O)C1)c1cc(Sc2ncccn2)ccn1` (stereo not drawn) | -14.93% |
| `Cc1cc(C[C@@H]2CCC[C@H]2NCc2ccccc2C)on1.O=C(O)CC(O)(CC(=O)O)C(=O)O` | -2.54% |
| `CN(C)C(=O)Cn1c(C2CC2)c(CN2CCC(O)CC2)c2cccnc21.Cl` | -33.32% |
| `COc1nn(C)cc1-c1nnc(SCc2cccnc2)n1C` | -17.31% |
| `O=C(O)C(F)(F)F.O=C(O)C(F)(F)F.[H][C@@]12C[C@H](C(=O)NCc3cccnc3)[C@@]([H])(CN(Cc3cccc(C)c3)C1)O2` | -58.46% |
| `O=C(Nc1cnn(CC(F)F)c1)c1cccc(-n2cnnn2)c1` | -7.687% |
| `O=c1[nH]c2c(-c3ccccn3)nsc2c(=O)n1CC1CCCO1` (stereo not drawn) | -11.2% |
| `Cc1nc(CCN(C)C(=O)CCNC(=O)c2ccccc2F)no1` | -10.83% |
| `Cn1cc(-c2nnn3c2COC(CNCC2CCOCC2)C3)cn1` (stereo not drawn) | -29.66% |
| `O=C(O)C(F)(F)F.[H][C@]12CN(CCOC)C[C@@]1(C(=O)O)CCCN(c1cc(OC)ncn1)C2` | -113% |
| `O=C(NC1CCN(C(=O)C2CCCCC2)C1)c1ccncc1Cl` (stereo not drawn) | -26.48% |
| `CCc1nnc2n1CCN(C(=O)c1ccc3[nH]nnc3c1)C2` | -20.06% |
| `CC(C)Cc1ncc(CNc2cnccc2CO)s1` | -17.77% |
| `COc1cccc(OCc2nnc3n2N=C(C(C)(C)C)CS3)c1` | -6.719% |
| `Cc1nc(CNC(=O)CCN2CCN(c3ccccc3)CC2)oc1C` | -23.21% |
| `COc1ccc2c(c1)C1(CCN(Cc3cccnc3)CC1)N(C)CC2.O=C(O)C(F)(F)F.O=C(O)C(F)(F)F.O=C(O)C(F)(F)F` | -111.9% |
| `O=C1NCC2(CCCN(C(=O)Cn3nc4ccccc4n3)CC2)O1` (stereo not drawn) | -46.67% |
| `CNc1ncccc1C(=O)N1CCN(C)C2(CCN(C)CC2)C1` | -54.34% |
| `CC(=O)N1CCCC(C(=O)NCCc2csc(-c3ccncc3)n2)C1` (stereo not drawn) | -21.7% |
| `Cc1cc(NC(=O)C(C)Cn2cncn2)no1` (stereo not drawn) | -47.47% & 2.223% |
| `CC(C)(N)C(=O)N1CCC(c2nccnc2Oc2cccc(F)c2)CC1` | 6.584% |
| `CN1CC(Nc2ccc(Br)cc2C#N)CCC1=O` (stereo not drawn) | -0.1988% |
| `NS(=O)(=O)Cc1ccc(CNC(=O)NCC2CCOC2)cc1` (stereo not drawn) | -17.21% |
| `COc1ccc(C(NC(=O)c2cccc[n+]2[O-])C2CC2)cc1` (stereo not drawn) | 3.648% |
| `Cc1cccc(N2CCOCC3(C2)CN(c2ccccc2)C(=O)CO3)n1.O=C(O)C(F)(F)F` (stereo not drawn) | -10.73% |
| `O=C(C1CCCC1)N1CCC(c2ncc3c(n2)CCNC3)C1` (stereo not drawn) | 3.616% |
| `COC(=O)COc1cccc(NS(=O)(=O)c2cc(C(=O)O)cs2)c1` | -26.89% |
| `O=C(O)C(F)(F)F.[H][C@]12C[C@@H](CN(C)C)N(C(C)=O)[C@@]1([H])CCN(C(=O)c1cccn1C)C2` | -12.12% |
| `COc1ccc(C(=O)N2CCCC(NC(=O)C(C)C)C2)c(O)c1` (stereo not drawn) | -10.74% |
| `CC(C)NC(=O)c1ccc2c(c1)C(c1nc[nH]n1)CN2C` (stereo not drawn) | -3.255% |
| `COc1ccc(NC(=O)Cn2ccc3c(=O)n(C)ccc32)cc1OC` | -3.631% |
| `CS(=O)(=O)N1CCCN(CCCSCc2ccccc2)CC1` | -8.554% |
| `Cc1cc2ccccc2n1CCC(=O)NCCCc1nnc(N)s1` | -58.21% |
| `CCc1n[nH]c(C2CN(C(=O)c3nc(C)n4ccccc34)CCO2)n1` (stereo not drawn) | 9.334% |
| `O=C(c1ccoc1)N1CCn2cnc(COCC3CC3)c2C1` | -23.14% |
| `Cl.c1nc(CCC2CCCN2)cc(N2CCCCCC2)n1` (stereo not drawn) | -0.6472% |
| `Cc1nccc(-c2cccc(NCC(=O)N3CCOCC3)c2)n1` | 18.69% |
| `CC(C)c1cc(-c2cnn(C)c2C2CC2)c(C#N)c(N)n1` | 38.92% |
| `CNc1cc(C(=O)N2CCOC(C(=O)NC3CCCC3)C2)ccn1` (stereo not drawn) | -6.333% |
| `Cc1nc(C)n(CC2CN(Cc3ccccc3C#N)CCO2)n1` (stereo not drawn) | 19.46% |
| `COCCNC(=O)N1CCN(C(=O)c2nsc3ccc(C)cc23)CC1` | -33.02% |
| `CCc1nc(C)ncc1C(=O)N1CCCC(n2nc(C)nc2C)C1` (stereo not drawn) | -42.86% |
| `CC(C)c1nc2c(n1C)CCN(CCc1ccccn1)C2` | -30.9% |
| `Cc1cc(C(=O)N2CCc3ncnc(N4CCSCC4)c3CC2)[nH]n1` | -42.09% |
| `COc1cccc(C2C3=C(COC3=O)Nc3[nH]nc(C)c32)c1O` (stereo not drawn) | -8.911% |
| `O=C(O)C(F)(F)F.O=C(O)C(F)(F)F.[H][C@@]12CCN(Cc3cccnc3)[C@]1([H])CC[C@H](COCC1CC1)O2` | 6.608% |
| `Cc1cccc(NC2CCc3c2[nH]c(=O)n(C2CCCCC2)c3=O)c1C` (stereo not drawn) | 0.9794% |
| `COC(=O)c1ccoc1CN(C)CC(=O)N(C)C` | -20.07% |
| `CN(CC(=O)N1CCCC1)C(=O)Cc1csc(-c2ncccn2)n1` | 7.376% |
| `[H][C@]12CCCCN1CCC[C@H]2CCC(=O)N1CCC(c2nnc[nH]2)CC1` | -3.109% |
| `Fc1ccc(OCc2nnc([C@H]3CCN(Cc4cccnc4)C3)o2)cc1` | -20.46% |
| `Cc1nccn1-c1ccc(C(C)Nc2cnn(C)c(=O)c2Cl)cc1` (stereo not drawn) | -24.04% |

The first 8 entries again:

Compound,Percent Effect
O=C(CCCOc1ccccc1)N1CCCC1Cn1cccn1 (stereo not drawn),-16.68%
Cc1cc(N2CCC(O)(CN(C)C(=O)CCN)CC2)c2cnccc2n1,7.075%
CN1CCN(C[C@@H]2CN(C(=O)CC3CCCCC3)C[C@@H]2CO)CC1,-6.951%
O=C(O)C(F)(F)F.O=C(O)C(F)(F)F.[H][C@@]12CCN(c3ncccn3)[C@]1([H])CC[C@H](C(=O)NC1CCN(C)CC1)O2,-29.6%
CCNC(=O)NCc1cccc(N2CC=CC2)c1,-18.84%
C=C(C)CN1CCOC(Cn2cncn2)C1 (stereo not drawn),-47.49%
Cn1c(=O)oc2ccc(Nc3ncc(C#N)cc3Cl)cc21,4.438%
CNS(=O)(=O)c1ccc(CNC(=O)c2cc(-c3ccccn3)no2)cc1,26.36%